In patent US20140017701A1, “CHIMERIC PDK1 KINASES” (priority 2011, published 2014) one finds binding data, which are given here for three molecules.

No constants are given. Whether binding was seen depends on the method and setting. For part of these data: Binding seen in cells or lysates may run through a third protein. Some entries that bind do so weakly or less than the wild type. Sequences can lack the tags named with a protein.

Assay [1] has as its target T1, His6-tagged PKCι Δ223 (human).
T1 sequence: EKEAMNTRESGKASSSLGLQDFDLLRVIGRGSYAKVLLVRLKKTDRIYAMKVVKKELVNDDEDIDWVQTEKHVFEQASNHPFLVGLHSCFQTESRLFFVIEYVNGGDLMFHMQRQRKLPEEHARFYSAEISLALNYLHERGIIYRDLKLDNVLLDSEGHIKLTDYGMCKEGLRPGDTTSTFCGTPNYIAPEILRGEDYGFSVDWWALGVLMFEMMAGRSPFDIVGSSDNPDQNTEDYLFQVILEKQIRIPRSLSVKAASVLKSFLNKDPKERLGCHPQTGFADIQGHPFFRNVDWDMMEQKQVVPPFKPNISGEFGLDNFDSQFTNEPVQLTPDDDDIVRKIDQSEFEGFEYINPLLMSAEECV
Put plainly: AlphaScreen interaction assay.

Assay [2] concerns the target T2, GST-PKCζ wild type (1-592) (human) (UniProt Q05513).
T2 sequence: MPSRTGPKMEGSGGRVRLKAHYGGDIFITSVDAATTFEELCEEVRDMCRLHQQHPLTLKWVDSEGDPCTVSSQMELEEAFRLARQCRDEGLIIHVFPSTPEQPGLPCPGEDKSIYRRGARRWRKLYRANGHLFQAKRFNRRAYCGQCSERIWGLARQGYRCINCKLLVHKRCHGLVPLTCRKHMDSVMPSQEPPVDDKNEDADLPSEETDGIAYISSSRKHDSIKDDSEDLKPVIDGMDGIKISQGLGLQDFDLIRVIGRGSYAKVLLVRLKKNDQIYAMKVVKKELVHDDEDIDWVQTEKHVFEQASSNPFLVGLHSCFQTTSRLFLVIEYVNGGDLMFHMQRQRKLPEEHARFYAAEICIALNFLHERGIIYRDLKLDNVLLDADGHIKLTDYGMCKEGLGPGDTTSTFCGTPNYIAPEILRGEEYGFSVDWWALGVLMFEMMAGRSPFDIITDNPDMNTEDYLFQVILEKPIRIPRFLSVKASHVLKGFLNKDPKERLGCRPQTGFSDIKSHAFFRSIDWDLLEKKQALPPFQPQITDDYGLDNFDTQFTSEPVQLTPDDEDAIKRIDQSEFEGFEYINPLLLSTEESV
Nature of the assay: GST pull-down from co-transfected HEK293 cells, immunoblot.

B1: GST-PSR-C1 (PKCι 100-185) (protein, not shown: a dimerising Fc or GST)
chain: VPERPGMPCPGEDKSIYRRGARRWRKLYCANGHTFQAKRFNRRAHCAICTDRIWGLGRQGYKCINCKLLVHKKCHKLVTIECGRHS
Regarding B1, the binding result in assay [1] is on record as “binds”.

B2: myc-tagged PDK1 (enzyme, not shown: small tags and cut ends)
chain: MARTTSQLYDAVPIQSSVVLCSCPSPSMVRTQTESSTPPGIPGGSRQGPAMDGTAAEPRPGAGSLQHAQPPPQPRKKRPEDFKFGKILGEGSFSTVVLARELATSREYAIKILEKRHIIKENKVPYVTRERDVMSRLDHPFFVKLYFTFQDDEKLYFGLSYAKNGELLKYIRKIGSFDETCTRFYTAEIVSALEYLHGKGIIHRDLKPENILLNEDMHIQITDFGTAKVLSPESKQARANSFVGTAQYVSPELLTEKSACKSSDLWALGCIIYQLVAGLPPFRAGNEYLIFQKIIKLEYDFPEKFFPKARDLVEKLLVLDATKRLGCEEMEGYGPLKAHPFFESVTWENLHQQTPPKLTAYLPAMSEDDEDCYGNYDNLLSQFGCMQVSSSSSSHSLSASDTGLPQRSGSNIEQYIHDLDSNSFELDLQFSEDEKRLLLEKQAGGNPWHQFVENNLILKMGPVDKRKGLFARRRQLLLTEGPHLYYVDPVNKVLKGEIPWSQELRPEAKNFKTFFVHTPNRTYYLMDPSGNAHKWCRKIQEVWRQRYQSHPDAAVQ
On to B2, for which, in assay [2], the binding result was “binds”.

B3: GST-C1 (PKCι 131-186) (protein, not shown: a dimerising Fc or GST)
chain: GHTFQAKRFNRRAHCAICTDRIWGLGRQGYKCINCKLLVHKKCHKLVTIECGRHSL
As to B3, the binding result in assay [1] is recorded as “binds”.
